# Assay results as given in paper PMC4046919.
# Protein sequences, listed by entry. Tags and fused reporters are not part of them. Lines headed by an entry give the natural chain unless they say otherwise; changes in a name come on top. Chains listed by the source or under a name are the forms on record and can include a tag or linker.
# nuclear myosin 1c (NM1), endogenous, mouse (mouse (endogenous in MEFs)) (Q9WTI7, form named): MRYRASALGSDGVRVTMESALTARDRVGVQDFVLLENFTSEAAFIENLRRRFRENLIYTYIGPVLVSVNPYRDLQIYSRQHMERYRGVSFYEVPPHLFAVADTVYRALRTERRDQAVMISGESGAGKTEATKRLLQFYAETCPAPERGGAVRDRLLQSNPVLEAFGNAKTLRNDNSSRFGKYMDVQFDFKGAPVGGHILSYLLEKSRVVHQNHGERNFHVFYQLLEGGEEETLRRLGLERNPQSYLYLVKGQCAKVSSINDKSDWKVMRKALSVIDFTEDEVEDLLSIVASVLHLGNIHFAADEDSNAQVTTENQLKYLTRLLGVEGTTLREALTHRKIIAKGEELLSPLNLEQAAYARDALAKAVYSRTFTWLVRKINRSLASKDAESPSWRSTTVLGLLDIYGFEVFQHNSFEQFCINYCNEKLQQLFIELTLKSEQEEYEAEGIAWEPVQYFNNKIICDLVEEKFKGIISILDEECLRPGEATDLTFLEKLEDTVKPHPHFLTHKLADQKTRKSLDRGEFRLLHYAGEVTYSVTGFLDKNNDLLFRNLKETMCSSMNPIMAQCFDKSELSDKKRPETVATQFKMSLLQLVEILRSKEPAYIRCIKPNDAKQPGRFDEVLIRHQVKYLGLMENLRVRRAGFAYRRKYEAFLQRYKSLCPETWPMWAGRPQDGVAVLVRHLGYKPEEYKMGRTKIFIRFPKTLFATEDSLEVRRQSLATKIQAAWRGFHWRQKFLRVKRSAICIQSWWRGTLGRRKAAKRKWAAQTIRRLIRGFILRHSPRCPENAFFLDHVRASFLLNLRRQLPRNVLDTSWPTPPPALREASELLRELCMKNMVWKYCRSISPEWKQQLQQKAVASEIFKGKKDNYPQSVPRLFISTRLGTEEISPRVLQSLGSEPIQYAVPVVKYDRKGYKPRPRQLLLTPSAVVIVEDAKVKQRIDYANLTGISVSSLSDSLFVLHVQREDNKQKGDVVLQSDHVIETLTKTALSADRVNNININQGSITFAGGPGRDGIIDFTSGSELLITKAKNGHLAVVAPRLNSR
# UniProt Q80TP3: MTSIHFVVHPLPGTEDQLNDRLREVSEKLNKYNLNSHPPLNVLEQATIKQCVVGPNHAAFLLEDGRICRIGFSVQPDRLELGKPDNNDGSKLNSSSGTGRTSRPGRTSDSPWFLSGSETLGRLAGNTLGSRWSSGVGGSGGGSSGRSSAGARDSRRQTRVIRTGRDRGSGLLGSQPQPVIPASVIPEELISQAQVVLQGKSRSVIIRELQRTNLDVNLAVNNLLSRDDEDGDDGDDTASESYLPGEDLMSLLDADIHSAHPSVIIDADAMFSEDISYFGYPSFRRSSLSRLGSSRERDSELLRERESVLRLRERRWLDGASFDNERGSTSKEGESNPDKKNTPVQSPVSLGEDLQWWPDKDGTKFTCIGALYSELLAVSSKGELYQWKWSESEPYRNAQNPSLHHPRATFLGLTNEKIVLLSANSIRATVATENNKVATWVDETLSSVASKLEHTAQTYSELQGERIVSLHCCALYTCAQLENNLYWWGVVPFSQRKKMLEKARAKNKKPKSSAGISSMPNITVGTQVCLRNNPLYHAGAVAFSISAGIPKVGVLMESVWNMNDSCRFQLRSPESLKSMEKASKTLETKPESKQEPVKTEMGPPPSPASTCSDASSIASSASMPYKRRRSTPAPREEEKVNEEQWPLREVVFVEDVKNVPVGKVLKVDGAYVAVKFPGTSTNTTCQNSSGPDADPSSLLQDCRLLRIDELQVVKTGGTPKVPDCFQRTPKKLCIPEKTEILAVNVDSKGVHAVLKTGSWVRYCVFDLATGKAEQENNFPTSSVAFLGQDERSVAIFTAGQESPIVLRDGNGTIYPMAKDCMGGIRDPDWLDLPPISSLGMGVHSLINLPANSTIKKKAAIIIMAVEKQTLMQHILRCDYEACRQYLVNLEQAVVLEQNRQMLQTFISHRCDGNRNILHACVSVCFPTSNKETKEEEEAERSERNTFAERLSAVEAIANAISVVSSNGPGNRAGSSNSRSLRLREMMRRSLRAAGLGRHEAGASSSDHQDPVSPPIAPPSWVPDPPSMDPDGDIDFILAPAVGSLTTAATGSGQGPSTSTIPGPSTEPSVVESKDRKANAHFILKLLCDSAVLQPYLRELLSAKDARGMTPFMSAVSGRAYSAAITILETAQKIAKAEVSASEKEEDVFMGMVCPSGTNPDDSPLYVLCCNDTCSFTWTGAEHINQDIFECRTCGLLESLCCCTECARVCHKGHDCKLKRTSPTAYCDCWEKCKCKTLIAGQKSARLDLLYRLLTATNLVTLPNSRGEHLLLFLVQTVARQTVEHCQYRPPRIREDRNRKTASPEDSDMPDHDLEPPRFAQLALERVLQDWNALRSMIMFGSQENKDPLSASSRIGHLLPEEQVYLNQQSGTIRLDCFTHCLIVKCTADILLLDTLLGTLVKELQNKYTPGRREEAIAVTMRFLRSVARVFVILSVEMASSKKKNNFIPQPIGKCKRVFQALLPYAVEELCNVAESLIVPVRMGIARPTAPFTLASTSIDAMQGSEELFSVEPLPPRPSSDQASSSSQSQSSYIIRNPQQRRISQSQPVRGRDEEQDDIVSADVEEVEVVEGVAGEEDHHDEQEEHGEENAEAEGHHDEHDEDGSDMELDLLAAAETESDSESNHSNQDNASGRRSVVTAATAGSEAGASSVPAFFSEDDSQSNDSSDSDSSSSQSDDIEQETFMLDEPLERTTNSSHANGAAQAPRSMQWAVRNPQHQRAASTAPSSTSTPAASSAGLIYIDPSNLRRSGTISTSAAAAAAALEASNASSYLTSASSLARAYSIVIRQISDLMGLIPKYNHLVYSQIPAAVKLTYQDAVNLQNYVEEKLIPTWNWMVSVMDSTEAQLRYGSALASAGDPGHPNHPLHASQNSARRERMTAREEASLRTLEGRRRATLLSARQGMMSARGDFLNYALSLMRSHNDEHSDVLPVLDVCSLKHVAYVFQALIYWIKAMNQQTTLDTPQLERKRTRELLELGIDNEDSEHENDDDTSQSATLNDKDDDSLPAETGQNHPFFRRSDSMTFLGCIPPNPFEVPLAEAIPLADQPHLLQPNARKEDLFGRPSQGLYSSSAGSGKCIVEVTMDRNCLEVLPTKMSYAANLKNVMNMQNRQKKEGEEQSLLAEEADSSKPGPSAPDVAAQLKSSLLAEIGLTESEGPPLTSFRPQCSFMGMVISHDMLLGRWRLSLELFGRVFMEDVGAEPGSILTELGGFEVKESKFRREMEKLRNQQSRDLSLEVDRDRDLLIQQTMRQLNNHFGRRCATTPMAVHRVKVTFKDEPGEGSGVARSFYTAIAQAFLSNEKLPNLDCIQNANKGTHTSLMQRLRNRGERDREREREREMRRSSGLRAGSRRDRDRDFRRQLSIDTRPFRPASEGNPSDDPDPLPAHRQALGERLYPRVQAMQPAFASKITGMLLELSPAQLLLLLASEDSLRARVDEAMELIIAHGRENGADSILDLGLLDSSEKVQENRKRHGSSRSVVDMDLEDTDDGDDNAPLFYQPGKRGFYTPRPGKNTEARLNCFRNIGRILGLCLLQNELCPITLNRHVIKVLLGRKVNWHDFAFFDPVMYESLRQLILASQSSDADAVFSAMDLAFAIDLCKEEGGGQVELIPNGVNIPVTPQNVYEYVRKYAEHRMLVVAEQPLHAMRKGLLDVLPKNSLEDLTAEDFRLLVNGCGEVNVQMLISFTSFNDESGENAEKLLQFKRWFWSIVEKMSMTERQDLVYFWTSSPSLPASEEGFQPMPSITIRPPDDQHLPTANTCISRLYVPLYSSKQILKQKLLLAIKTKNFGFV
# No constants are given. Whether binding was seen depends on the method and setting. In cells and extracts the contact can be indirect. These calls come from enrichment with a bait or labelling near it, and not all partners need be listed. For some of these results: No binding means not detected with the bait.
# Key:
# [1] = molecular target: nuclear myosin 1c (NM1), endogenous, mouse (mouse (endogenous in MEFs)) (UniProt Q9WTI7); assay: affinity purification with mass spectrometry; nuclear lysates of untreated growing GSK3β+/+ MEFs; immunoprecipitation with antibodies to NM1; SDS gel, in-gel trypsin digestion, nLC-MS/MS
# [2] = molecular target: nuclear myosin 1c (NM1), endogenous, mouse (mouse (endogenous in MEFs)) (UniProt Q9WTI7); assay: condition: only cells treated with MG132 (40 µM for 3 hrs at 37°C); affinity purification with mass spectrometry; nuclear lysates of GSK3β+/+ MEFs treated with MG132 (40 µM for 3 hrs at 37°C); immunoprecipitation with antibodies to NM1; SDS gel, in-gel trypsin digestion, nLC-MS/MS
binding [1],binding [2],Molecule
binds,no binding,"E3 ligase UBR5, endogenous, mouse (from UniProt Q80TP3 1-2792) (enzyme)"
binds,no binding,"F-box/WD repeat-containing protein 8 (Fbxw8), endogenous, mouse (protein, UniProt Q8BIA4 1-598) MDDHNLEEFRRHWQEELAQSQALRRRRRLEAGERRSPRRPEAGARGEPASGYLGLAQGLLEGAGRPPAPRPGRGGDRKDTSSRSRSPPDRDATEPEPLVDQLIRDLNELDDVPFFDVRLPYELAINIFQYLNRRELGLCAQVSKTWKVIAEDEVLWYRLCRQEGHLPHSRFSDYTCWKLILQECLAKEHTLRANWKNRKGAVSELEHVPDAVLCDVRSHDGVVIAGYTSGDVRVWDTRTWDYVAPFLESESEEEDPGMQPYVSFVRINSSLAVAAYEDGILNIWDLRTGRFPIFRFEHDARIQALALSQEKPIVATASAFDVVMLYPNEEGHWHVASEFEVQKLVDYLEIVPNTGRYPVAIATAGDLVYLLKADDSARTLHYVYGQPATCLDVSASQVAFGVKSLGWVYEGNKILVYSLEAERCLSKLGNALGDFTCVNIRDSPPNLMVSGNMDRRVRIHDLRSDKIALSLSAHQLGVSAVQMDDWKVVSGGEEGLVSVWDYRMNQKLWEVHSRHPVRYLSFNSHSLITANVPYEKVLRNSDLDNFACHRRHRGLIHAYEFAVDQLAFQSPLPVCRLPRDIMAGYSYDLALSFPHDSI"
